Measured values taken from PubChem BioAssay AID1741 (Vanderbilt High Throughput Screening Facility, 2009).
The campaign covered roughly 1,700 compounds. About 150 (8.8%) were called active. The shares of active, inactive and inconclusive entries below differ from those in the screen.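 The calls were made as follows: active = fluorescence change differing from the plate's solvent-only control wells at 99.7% confidence in both duplicates, whether higher or lower; inconclusive = differs from solvent controls in only one of two duplicates; inactive = the rest.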

Chains of the proteins cited; added tags and fusions are not shown.
UniProt P08485, whole entry, looked up: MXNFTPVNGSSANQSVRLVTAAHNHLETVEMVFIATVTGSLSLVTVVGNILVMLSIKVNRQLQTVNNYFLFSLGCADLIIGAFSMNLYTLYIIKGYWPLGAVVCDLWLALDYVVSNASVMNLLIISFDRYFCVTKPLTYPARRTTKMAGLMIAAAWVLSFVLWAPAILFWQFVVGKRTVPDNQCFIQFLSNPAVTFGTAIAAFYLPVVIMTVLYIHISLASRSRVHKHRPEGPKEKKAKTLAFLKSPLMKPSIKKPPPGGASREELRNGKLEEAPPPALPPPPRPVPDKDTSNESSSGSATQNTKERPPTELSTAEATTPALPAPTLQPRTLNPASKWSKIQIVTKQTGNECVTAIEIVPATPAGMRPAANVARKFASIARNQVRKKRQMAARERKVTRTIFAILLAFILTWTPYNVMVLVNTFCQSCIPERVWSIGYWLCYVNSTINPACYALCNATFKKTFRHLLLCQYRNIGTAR

Each molecule was assayed against Muscarinic acetylcholine receptor M4 (Rattus norvegicus) (UniProt P08485) (assay: rat M4 muscarinic receptor activation – cell-based, agonist mode, counter-screen for M1 allosteric modulator project, confirmation (AID 1741)). Conditions: CHO M4/Gqi5 cells, Fluo-4 calcium fluorescence, at 10 µM, actives lie on both sides.

SMILES	fluorescence change (max-min)
O=C(CNC(=O)c1ccco1)OC(C(=O)c1ccccc1)c1ccccc1 (stereo not drawn)	inconclusive: -77.1
CCOc1ccc2oc(-c3ccccc3)c(C(=O)N3CCN(CCO)CC3)c2c1	inconclusive: -61
COc1ccc(-c2noc(-c3ccccc3C(=O)NCc3ccco3)n2)cc1OC	inactive: -27.1
C=C(C)CSc1nnc2n(C)c(=O)c3c4c(sc3n12)CCC4	inconclusive: -52.7
CCc1ccccc1S(=O)(=O)Cc1ccc(C(=O)N2CCN(c3ccccc3OC)CC2)o1	inconclusive: -49.3
CCn1c(C)nc2cc(S(=O)(=O)C(F)(F)C(F)C(F)(F)F)ccc21 (stereo not drawn)	inconclusive: -134
Cc1cccc(-n2c(C)nc3c(cnn3-c3ccc(F)cc3)c2=O)c1	inconclusive: -69.1
Cc1ccc(S(=O)(=O)N2CCC(C(=O)N[C@@H](Cc3ccccc3)C(=O)O)CC2)cc1	inconclusive: -51.7
Cc1ccc(-c2cn3nc(C)c(C)nc3n2)cc1	inactive: 83.1
CCN(CC)S(=O)(=O)c1ccc(C(=O)OCn2nnc3ccccc3c2=O)cc1	inconclusive: -66.6
O=C(Nc1ccc(S(=O)(=O)N2CCOCC2)cc1)C1COc2ccccc2O1 (stereo not drawn)	active: -66.2
CCN(CC)S(=O)(=O)c1ccc2oc(SCC3CN=C(c4ccc(OC)cc4)S3)nc2c1 (stereo not drawn)	inconclusive: -79
Cc1nn2c(-c3cccc(NC(=O)c4ccco4)c3)nnc2c2ccccc12	inconclusive: -70
COCCNC(=O)c1ccccc1NC(=O)C1COc2ccccc2O1 (stereo not drawn)	active: -120
Cc1ccsc1C1C=C(c2cccc(Br)c2)Nc2ncnn21 (stereo not drawn)	active: 793
Cc1cc(N)n(-c2nc(-c3cccnc3)nc3ccccc23)n1	inactive: -76.4
O=C1NC(c2ccco2)Nc2sc3c(c21)CCN(Cc1ccccc1)C3 (stereo not drawn)	inactive: 20.7
COc1ccc(OC)c(C2C3CN(C(C)C)CC=C3C(C#N)=C(N)C2(C#N)C#N)c1 (stereo not drawn)	active: 212
O=C(CSC1=NCCS1)Nc1ccnc2ccccc12	inconclusive: -4.07
CCCCCOC(=O)c1ccccc1C(=O)O	inconclusive: -28.9

SMILES	fluorescence change (max-min)
CCOC(=O)C1CCN(C(=O)C2c3ccccc3C(=O)N(C)C2c2ccc(OC)cc2)CC1 (stereo not drawn)	inactive: -38.7
COc1ccc(C2C(C(C)=O)=C(C)N=c3s/c(=C\c4cc(C)n(C)c4C)c(=O)n32)c(OC)c1 (stereo not drawn)	inconclusive: 389
Cc1oc(-c2ccc(Cl)cc2)nc1CN1CCC(C(=O)N2CCc3ccccc3C2)CC1	inactive: -72.5
Cc1cc(N2CCN(c3nc4ccccc4s3)CC2)n2ncnc2n1	inconclusive: -60.9
Cc1cn(-c2ccc(Br)cc2)[nH]c1=O	inconclusive: -125
Cc1ccc(-n2c(C)nc3c(cnn3-c3ccc(F)cc3)c2=O)cc1C	inconclusive: -62.3
N=c1c(C(=O)NCc2ccc(F)cc2)cc2c(=O)n3ccccc3nc2n1CC1CCCO1 (stereo not drawn)	inconclusive: 93.7
CCOC(=O)c1cn(-c2ccccc2)nc1-c1ccncc1	inconclusive: -107
CCCn1c(=S)[nH]c2cc(C(=O)N3CCCC(C(=O)OCC)C3)ccc2c1=O (stereo not drawn)	inconclusive: -86.5
CN1C(=O)C(O)(CC(=O)c2ccccn2)c2cc(Br)ccc21 (stereo not drawn)	inactive: -54.1
N#C/C(=C/c1ccc(N2CCCCCC2)o1)c1ccc(F)cc1	inconclusive: -35.7
O=C(CSc1ccc2nnc(-c3ccccn3)n2n1)N1CCN(c2ccccc2)CC1	inconclusive: -80
CC(=O)c1cccc(-n2nnnc2SCC(=O)Nc2cccc(NC(=O)c3ccco3)c2)c1	inconclusive: -56.1
Cc1ccc(C(=O)N2CCN(S(C)(=O)=O)C2)cc1	inactive: -59.6
CCOC(=O)COn1c(=O)c(-c2cccs2)[n+]([O-])c2ccccc21	inconclusive: 157
COc1cc(/C=C/C(=O)CC(=O)/C=C/c2ccc(O)c(OC)c2)ccc1O	active: 401
CCN(CC)c1ccc2cc(NC(=O)CCC(=O)O)c(=O)oc2c1	active: 1750
CCOC(=O)c1nnn(-c2nonc2N)c1CN1CCc2ccccc2C1	inconclusive: -81.4
OCCCc1nc2n(n1)C(c1ccccc1Cl)C=C(c1cccs1)N2 (stereo not drawn)	active: 197
COc1ccc(C2C(C(C)=O)=C(C)N=c3s/c(=C/c4ccc5c(c4)OCO5)c(=O)n32)cc1 (stereo not drawn)	inactive: 36.4

In a second layout: 2 of the compounds above

| SMILES | fluorescence change (max-min) |
| --- | --- |
| Cc1ccc(S(=O)(=O)N2CCC(C(=O)N[C@@H](Cc3ccccc3)C(=O)O)CC2)cc1 | inconclusive: -51.7 |
| Cc1ccc(-n2c(C)nc3c(cnn3-c3ccc(F)cc3)c2=O)cc1C | inconclusive: -62.3 |

More entries follow:

SMILES	fluorescence change (max-min)
CC(C)(C)OC(=O)N[C@@H](Cc1ccccc1)c1nnc(S(=O)(=O)Cc2ccccc2)o1	inactive: -40.9
CCN1C(=O)c2cccc3c(NC(=O)c4ccc5c(c4)OCCO5)ccc1c23	active: 134
COc1ccc(CCn2c(-c3ccco3)nc3ccccc3c2=O)cc1OC	active: -73.5
O=C(CN1CCOCC1)NCCNC(=O)CN1CCOCC1	inconclusive: -61.7
C[N+](C)(C)C/C=C1/COCO1	active: 178
CCOC(=O)C1CCCN(c2c(NCCc3ccc(S(N)(=O)=O)cc3)c(=O)c2=O)C1 (stereo not drawn)	inactive: -14.1
O=C(Nc1cccc(-c2cn3cccnc3n2)c1)c1ccc2c(c1)OCO2	inconclusive: -68.3
COc1ccc2c(=O)c(C(=O)NCCc3ccc(OC)c(OC)c3)c[nH]c2c1	inconclusive: -166
CNC(=O)c1ccc(-c2sc3nc(N4CCOCC4)c4c(c3c2N)CCCC4)o1	active: -68.9
N#CC1=C(SCc2ccccc2)NC(=O)CC1c1ccco1 (stereo not drawn)	inconclusive: -62
O=C(Cn1ccc2ccccc2c1=O)NCCC(=O)N1CCN(C2CCCCC2)CC1	inactive: -24.5
COC(=O)/C=c1\sc2n(c1=O)C(C)=CC(C)(C)N=2	inactive: -44.4
CCc1c(C)nc2ncnn2c1NCCc1ccc(OC)cc1	inconclusive: -41.3
CN1C=CC2=C(C#N)C(N)C(C#N)(C#N)C(c3ccccc3)C2C1 (stereo not drawn)	active: 179
CCOC(=O)Cc1cnc(NC(=O)c2ccccc2)s1	inconclusive: -128
CCCCCNC(=O)C(C#N)c1nc2ccccc2nc1N1CCCC1 (stereo not drawn)	active: 1440
CCOC(=O)c1ccc(S(=O)(=O)Nc2ccccc2-c2nnn(CC)n2)cc1	inconclusive: -118
CSc1ccc(C2C(C#N)=C(N)Oc3c2ccc(=O)c2c(C)oc(C)c32)cc1 (stereo not drawn)	inactive: -18.3

Structures from the list above containing a Cl atom:
SMILES	fluorescence change (max-min)
Cc1oc(-c2ccc(Cl)cc2)nc1CN1CCC(C(=O)N2CCc3ccccc3C2)CC1	inactive: -72.5
OCCCc1nc2n(n1)C(c1ccccc1Cl)C=C(c1cccs1)N2 (stereo not drawn)	active: 197
